This passage reports log2 fold change results from the supplement of paper PMC10849652.

Protein sequences, listed by entry. Tags and fused reporters are not part of them. Lines headed by an entry give the natural chain unless they say otherwise; changes in a name come on top.
UniProt Q6QEF8, whole entry, looked up: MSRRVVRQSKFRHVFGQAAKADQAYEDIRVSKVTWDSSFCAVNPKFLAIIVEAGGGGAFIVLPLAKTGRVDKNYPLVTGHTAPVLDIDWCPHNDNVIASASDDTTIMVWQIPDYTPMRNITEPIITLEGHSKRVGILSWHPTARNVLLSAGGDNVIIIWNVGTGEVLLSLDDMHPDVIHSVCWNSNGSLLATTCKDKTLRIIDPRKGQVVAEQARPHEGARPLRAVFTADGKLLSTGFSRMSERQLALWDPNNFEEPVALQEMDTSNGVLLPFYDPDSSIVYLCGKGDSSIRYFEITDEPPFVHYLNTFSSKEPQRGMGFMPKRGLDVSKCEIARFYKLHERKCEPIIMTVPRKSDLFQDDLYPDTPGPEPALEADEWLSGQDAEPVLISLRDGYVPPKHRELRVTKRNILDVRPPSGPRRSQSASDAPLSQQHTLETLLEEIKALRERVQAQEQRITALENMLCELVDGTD
UniProt P78368: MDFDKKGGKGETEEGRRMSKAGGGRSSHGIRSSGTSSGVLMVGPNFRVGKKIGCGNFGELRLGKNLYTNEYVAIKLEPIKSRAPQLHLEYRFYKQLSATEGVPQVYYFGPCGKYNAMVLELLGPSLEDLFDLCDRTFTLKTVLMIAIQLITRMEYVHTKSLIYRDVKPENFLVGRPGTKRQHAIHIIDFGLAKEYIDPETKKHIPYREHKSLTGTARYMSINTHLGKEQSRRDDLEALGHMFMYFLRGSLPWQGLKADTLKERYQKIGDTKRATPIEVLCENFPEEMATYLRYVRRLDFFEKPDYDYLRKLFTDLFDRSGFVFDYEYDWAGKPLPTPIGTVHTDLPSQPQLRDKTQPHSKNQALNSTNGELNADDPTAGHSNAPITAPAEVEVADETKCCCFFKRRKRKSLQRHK
UniProt P02511: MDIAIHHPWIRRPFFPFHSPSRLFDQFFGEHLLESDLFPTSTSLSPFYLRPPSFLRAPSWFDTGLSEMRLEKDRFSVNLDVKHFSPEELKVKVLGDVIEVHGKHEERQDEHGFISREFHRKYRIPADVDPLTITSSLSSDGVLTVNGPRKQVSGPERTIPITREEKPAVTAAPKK
UniProt Q12887: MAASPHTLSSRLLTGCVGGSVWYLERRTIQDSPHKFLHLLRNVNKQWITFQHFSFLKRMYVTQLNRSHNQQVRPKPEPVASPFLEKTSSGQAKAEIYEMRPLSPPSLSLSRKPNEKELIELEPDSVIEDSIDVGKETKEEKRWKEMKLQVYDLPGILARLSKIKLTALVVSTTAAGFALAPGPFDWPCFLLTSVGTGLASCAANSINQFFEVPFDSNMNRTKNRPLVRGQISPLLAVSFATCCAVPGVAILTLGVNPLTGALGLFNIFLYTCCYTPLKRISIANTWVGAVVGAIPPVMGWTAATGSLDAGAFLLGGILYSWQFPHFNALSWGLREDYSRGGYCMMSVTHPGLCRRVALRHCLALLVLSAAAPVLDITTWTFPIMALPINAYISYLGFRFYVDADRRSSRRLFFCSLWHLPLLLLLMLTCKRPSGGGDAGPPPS
UniProt Q86T23: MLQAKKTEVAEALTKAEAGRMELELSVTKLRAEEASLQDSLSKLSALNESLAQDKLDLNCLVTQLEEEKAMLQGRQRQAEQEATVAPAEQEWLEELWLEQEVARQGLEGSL
UniProt P02461, whole entry, looked up: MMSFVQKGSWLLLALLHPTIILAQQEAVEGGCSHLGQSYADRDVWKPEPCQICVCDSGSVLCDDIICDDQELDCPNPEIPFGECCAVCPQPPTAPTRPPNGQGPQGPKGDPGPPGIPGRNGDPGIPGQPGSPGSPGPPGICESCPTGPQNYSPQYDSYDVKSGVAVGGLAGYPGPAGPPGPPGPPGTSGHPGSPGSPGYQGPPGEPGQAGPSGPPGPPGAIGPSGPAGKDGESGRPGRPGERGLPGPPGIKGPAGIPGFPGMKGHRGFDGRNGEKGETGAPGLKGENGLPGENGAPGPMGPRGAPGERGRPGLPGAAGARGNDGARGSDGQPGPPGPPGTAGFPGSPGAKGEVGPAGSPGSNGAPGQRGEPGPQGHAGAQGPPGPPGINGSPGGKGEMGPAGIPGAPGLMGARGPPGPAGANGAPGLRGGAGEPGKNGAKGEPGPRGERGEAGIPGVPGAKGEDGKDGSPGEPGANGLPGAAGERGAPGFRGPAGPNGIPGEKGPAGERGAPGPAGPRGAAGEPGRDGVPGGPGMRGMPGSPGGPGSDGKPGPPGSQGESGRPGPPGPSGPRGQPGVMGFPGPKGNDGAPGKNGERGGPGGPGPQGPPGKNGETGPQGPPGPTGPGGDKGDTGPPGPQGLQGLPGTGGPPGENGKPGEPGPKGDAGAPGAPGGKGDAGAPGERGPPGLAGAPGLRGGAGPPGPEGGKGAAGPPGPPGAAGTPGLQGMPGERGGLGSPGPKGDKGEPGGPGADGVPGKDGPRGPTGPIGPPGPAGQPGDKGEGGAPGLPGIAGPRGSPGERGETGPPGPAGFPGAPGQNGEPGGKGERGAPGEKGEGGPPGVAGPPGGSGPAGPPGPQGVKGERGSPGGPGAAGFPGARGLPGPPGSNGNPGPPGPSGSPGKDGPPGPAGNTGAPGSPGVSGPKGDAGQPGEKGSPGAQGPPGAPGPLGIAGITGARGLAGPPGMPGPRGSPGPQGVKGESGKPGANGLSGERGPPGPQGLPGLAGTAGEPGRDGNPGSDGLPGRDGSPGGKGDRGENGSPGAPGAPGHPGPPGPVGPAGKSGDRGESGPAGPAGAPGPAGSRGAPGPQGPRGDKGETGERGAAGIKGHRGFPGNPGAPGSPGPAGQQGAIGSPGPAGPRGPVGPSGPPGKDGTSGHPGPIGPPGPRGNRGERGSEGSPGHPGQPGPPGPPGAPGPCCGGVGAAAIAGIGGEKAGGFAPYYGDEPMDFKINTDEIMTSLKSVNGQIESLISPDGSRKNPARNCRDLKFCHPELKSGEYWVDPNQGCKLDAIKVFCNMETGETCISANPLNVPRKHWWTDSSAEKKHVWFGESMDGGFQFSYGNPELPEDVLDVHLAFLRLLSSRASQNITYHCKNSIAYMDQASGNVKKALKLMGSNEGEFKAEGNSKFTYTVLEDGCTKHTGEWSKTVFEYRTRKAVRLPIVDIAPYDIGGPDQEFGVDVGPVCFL
UniProt Q9UBI1, whole entry, looked up: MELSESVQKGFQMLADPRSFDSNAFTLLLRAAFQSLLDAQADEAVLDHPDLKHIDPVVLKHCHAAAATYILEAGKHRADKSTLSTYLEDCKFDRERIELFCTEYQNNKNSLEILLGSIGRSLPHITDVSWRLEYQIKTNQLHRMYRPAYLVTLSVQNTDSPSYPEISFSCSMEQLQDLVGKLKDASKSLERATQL
UniProt O95639, whole entry, looked up: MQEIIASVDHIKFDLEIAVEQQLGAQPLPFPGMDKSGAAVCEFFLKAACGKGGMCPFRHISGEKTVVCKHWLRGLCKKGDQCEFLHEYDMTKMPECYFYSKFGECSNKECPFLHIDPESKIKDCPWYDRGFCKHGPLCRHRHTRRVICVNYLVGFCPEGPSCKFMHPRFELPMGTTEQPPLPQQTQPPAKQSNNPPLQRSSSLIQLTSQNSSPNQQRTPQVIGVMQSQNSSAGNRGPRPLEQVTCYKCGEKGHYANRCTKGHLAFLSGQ
UniProt Q16526: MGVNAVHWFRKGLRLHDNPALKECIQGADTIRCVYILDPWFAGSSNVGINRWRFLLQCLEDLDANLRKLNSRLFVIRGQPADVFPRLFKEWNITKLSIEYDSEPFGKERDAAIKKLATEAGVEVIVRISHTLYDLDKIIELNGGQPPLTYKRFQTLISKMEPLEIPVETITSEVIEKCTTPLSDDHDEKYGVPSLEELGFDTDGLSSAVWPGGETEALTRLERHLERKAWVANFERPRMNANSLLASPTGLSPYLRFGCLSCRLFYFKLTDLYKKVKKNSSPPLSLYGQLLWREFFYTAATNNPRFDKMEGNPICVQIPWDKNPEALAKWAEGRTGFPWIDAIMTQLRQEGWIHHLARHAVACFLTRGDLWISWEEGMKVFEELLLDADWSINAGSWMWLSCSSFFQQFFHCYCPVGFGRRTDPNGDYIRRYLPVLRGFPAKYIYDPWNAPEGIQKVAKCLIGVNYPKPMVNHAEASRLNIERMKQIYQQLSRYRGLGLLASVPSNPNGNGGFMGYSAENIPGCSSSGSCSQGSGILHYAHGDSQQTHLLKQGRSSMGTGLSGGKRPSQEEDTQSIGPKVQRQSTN
UniProt Q70SY1: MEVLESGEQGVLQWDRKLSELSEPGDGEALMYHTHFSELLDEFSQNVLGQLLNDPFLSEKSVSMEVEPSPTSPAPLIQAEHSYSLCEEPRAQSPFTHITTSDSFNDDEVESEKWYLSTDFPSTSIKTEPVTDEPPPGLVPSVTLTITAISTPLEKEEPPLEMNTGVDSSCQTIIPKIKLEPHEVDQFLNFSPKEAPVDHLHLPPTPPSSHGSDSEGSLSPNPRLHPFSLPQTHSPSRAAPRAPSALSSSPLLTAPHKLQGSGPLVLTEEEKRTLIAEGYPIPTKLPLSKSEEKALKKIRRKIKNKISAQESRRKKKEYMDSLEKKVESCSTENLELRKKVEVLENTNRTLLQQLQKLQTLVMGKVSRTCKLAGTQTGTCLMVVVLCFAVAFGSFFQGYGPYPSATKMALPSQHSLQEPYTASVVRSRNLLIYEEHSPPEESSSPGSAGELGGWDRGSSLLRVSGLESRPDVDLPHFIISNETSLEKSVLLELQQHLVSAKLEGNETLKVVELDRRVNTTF
UniProt O14810: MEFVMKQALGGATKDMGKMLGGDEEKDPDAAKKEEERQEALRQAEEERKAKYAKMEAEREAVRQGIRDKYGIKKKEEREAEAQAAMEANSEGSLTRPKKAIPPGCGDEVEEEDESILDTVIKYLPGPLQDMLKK
UniProt Q9UBL6: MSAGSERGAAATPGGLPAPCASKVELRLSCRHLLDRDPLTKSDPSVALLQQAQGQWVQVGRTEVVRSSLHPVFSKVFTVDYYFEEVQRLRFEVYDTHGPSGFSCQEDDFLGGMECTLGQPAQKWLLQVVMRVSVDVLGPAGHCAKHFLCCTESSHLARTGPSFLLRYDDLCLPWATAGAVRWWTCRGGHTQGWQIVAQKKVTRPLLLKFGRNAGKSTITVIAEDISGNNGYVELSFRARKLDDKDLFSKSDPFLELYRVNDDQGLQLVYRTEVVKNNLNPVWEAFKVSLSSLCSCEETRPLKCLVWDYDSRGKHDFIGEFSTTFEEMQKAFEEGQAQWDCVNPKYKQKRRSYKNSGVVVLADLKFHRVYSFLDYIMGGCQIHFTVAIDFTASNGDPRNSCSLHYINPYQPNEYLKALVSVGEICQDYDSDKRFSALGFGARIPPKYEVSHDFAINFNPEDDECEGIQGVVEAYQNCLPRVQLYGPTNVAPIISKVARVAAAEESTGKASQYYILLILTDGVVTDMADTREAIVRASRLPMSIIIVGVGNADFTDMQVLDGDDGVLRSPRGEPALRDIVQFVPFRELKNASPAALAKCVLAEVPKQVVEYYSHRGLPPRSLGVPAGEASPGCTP
UniProt P53674: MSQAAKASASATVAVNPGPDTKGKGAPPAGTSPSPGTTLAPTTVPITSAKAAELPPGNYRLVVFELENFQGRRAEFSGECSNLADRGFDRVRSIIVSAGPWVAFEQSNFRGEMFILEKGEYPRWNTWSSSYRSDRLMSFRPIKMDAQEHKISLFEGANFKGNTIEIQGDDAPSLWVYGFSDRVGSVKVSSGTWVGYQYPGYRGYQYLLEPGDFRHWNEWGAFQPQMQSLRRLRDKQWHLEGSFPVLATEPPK
UniProt Q9BWP8: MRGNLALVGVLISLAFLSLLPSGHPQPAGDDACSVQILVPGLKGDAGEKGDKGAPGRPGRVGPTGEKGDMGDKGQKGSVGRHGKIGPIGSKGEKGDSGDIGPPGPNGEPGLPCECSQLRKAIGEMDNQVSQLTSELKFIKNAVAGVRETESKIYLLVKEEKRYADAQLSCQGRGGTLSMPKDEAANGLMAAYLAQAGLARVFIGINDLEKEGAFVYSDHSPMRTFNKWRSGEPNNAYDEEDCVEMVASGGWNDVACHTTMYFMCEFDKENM
UniProt Q9BXS0: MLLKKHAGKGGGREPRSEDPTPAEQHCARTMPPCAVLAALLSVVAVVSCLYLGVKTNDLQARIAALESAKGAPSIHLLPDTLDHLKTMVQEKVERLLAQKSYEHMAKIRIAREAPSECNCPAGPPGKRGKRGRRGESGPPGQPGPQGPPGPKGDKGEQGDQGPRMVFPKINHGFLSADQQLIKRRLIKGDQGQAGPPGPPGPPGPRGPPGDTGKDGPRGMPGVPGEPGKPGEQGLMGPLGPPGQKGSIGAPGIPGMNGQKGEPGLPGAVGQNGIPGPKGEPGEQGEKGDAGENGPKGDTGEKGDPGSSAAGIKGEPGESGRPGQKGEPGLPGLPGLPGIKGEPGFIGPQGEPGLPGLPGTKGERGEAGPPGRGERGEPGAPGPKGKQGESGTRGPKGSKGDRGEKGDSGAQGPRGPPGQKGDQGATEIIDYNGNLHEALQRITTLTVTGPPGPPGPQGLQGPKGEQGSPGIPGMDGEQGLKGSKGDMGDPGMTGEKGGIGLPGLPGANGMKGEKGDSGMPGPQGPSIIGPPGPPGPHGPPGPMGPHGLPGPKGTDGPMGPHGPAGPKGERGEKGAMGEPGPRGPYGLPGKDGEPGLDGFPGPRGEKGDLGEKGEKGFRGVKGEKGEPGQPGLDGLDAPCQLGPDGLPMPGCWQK

This is one part of the list.

Compound in one assay: CC1=C(C=C(C=C1)NC(=O)C2=CC(=CC=C2)C(C)(C)C#N)NC3=CC4=C(C=C3)N=CN(C4=O)C
Kind of assay: log2 fold change, soluble protein after heating vs DMSO (PISA); higher = thermal stabilisation; K562 cells, 10 uM, 30 min; active = over 0.2 and 3.5 SD of the protein, either way, in both replicates (recomputed). In a few lines:
(§1)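 Quantification of soluble protein used TMTpro 16plex LC-MS/MS, with channel sums equalised. Samples were the supernatant after 21,000xg for 90 min of pooled aliquots from K562 cells (2×10^6 cells/mL) treated with 10 μM compound for 30 min, heated for 3 min over 48°C-58°C, and extracted in PBS with 0.5% NP-40 at 4°C. Values, from duplicates, describe thermal stability against control samples on a log2 fold-change scale.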
Take CORO6 isoform 5 (UniProt Q6QEF8): the log2 fold change was inactive: -0.058.
The same measure, in the same setting: under CRMP1 isoform 2 (UniProt Q14194) stands inactive: 0.089; under CSNK1G2 (UniProt P78368), inactive: 0.086; under CRYAB (UniProt P02511), inactive: -0.133.
Consider COMMD3-BMI1 (UniProt R4GMX3), for which the log2 fold change is inactive: -0.002.

Compound in the next assay: CC1=C(C=C(C=C1)NC(=O)C2=CC(=CC=C2)N(C)C)NC(=O)C3=CC=C(C=C3)O
Described as above. The method in brief:
as §1
As for COX10 (UniProt Q12887), the log2 fold change was inactive: 0.
The same measure, in the same setting: the result for CPN1 (UniProt P15169) reads inactive: 0.215.
Same read-out and setting: under CROCCP2 (UniProt Q86T23) stands inactive: -0.022; under COP1 (UniProt Q8NHY2), inactive: -0.056.
The same measure, in the same setting: the result for COL3A1 (UniProt P02461) reads inactive: 0.461.
Take COQ4 (UniProt Q9Y3A0): the log2 fold change was inactive: 0.17.
Take COMMD3 (UniProt Q9UBI1): the log2 fold change was inactive: -0.163.
Turning to CPSF4 (UniProt O95639), the log2 fold change is inactive: -0.101.
Same read-out and setting: the result for CRY1 (UniProt Q16526) reads inactive: 0.033; that for CREB3L2 (UniProt Q70SY1), inactive: 0.085; that for CP (UniProt P00450), inactive: 0.44.
Take CPLX1 (UniProt O14810): the log2 fold change is inactive: 0.049.
The same measure, in the same setting: under CPNE7 (UniProt Q9UBL6) stands inactive: 0.013.

Compound in a further assay: CC1=CC=C(C=C1)SC2=C3C=C(SC3=CN=C2)C(=O)N
Described as above. The method in brief: as §1
Take COX10 (UniProt Q12887): the log2 fold change is inactive: 0.114.
Consider CRAT (UniProt P43155), for which the log2 fold change was inactive: 0.03.
The same measure, in the same setting: the result for COP1 (UniProt Q8NHY2) reads inactive: 0.231.
The same measure, in the same setting: under COL3A1 (UniProt P02461) stands inactive: 0.018.
For COMMD3-BMI1 (UniProt R4GMX3), the log2 fold change is inactive: -0.126.
For the target COMMD3 (UniProt Q9UBI1), the log2 fold change is inactive: 0.159.
The same measure, in the same setting: under CSNK1A1 isoform 3 (UniProt P48729) stands inactive: -0.08.
As to CRY1 (UniProt Q16526), the log2 fold change is inactive: 0.104.
The same measure, in the same setting: under CP (UniProt P00450) stands inactive: 0.029; under CPNE7 (UniProt Q9UBL6), inactive: 0.045.
The same measure, in the same setting: the result for COL6A3 (UniProt P12111) reads inactive: 0.203.

Compound in another assay: CC1=NC(=CC=C1)C2=C(N=C(N2)C(C)(C)C)C3=CC4=NC=CN=C4C=C3
Described as above. The method in brief:
as §1
As to CORO6 isoform 5 (UniProt Q6QEF8), the log2 fold change was inactive: -0.283.
Still for that read-out and setting: under CSGALNACT2 (UniProt Q8N6G5) stands inactive: 0.171.
As for COX10 (UniProt Q12887), the log2 fold change was inactive: 0.029.
Consider CSNK1G2 (UniProt P78368), for which the log2 fold change is inactive: 0.
On the same count and under the same terms, the result for CRYBB1 (UniProt P53674) reads inactive: 0.079; that for COL3A1 (UniProt P02461), inactive: 0.038.
Still for that read-out and setting: the result for CRYAB (UniProt P02511) reads inactive: -0.273.
As to COLEC11 isoform 10 (UniProt Q9BWP8), the log2 fold change was inactive: -0.251.
Same read-out and setting: the result for CRADD (UniProt P78560) reads inactive: 0.004; that for COMMD3 (UniProt Q9UBI1), inactive: -0.009.
Consider CREB3L2 (UniProt Q70SY1), for which the log2 fold change was inactive: -0.23.
The same measure, in the same setting: the result for CPLX1 (UniProt O14810) reads inactive: 0.004.
For CPNE7 (UniProt Q9UBL6), the log2 fold change was inactive: -0.035.

Compound in the next assay: CCCCN(Cc1ccc(C(=O)NO)cc1)C(=O)Nc1ccccc1 [Nexturastat A]
The assay is described as above. In a few lines: as §1
For the target CORO6 isoform 5 (UniProt Q6QEF8), the log2 fold change was inactive: -0.077.
Same read-out and setting: under CSGALNACT2 (UniProt Q8N6G5) stands inactive: 0.152; under COX10 (UniProt Q12887), inactive: 0.051.
The same measure, in the same setting: under CSNK1G2 (UniProt P78368) stands inactive: 0.182; under CRYBB1 (UniProt P53674), inactive: -0.142.
Still for that read-out and setting: the result for COL3A1 (UniProt P02461) reads inactive: -0.143; that for CRYAB (UniProt P02511), inactive: 0.426; that for COLEC11 isoform 10 (UniProt Q9BWP8), inactive: 0.097.
COMMD3-BMI1 (UniProt R4GMX3): the log2 fold change is inactive: 0.03.
On the same count and under the same terms, the result for COMMD6 isoform 2 (UniProt Q7Z4G1) reads inactive: 0.035.
On the same count and under the same terms, the result for CRYM (UniProt Q14894) reads inactive: -0.085; that for CRY1 (UniProt Q16526), inactive: 0.12.
Same read-out and setting: under CREB3L2 (UniProt Q70SY1) stands active: 0.706; under COQ2 (UniProt Q96H96), inactive: -0.346.
For CPLX1 (UniProt O14810), the log2 fold change is inactive: -0.105.
On the same count and under the same terms, under CRABP2 (UniProt P29373) stands inactive: 0.033.
On the same count and under the same terms, under COL25A1 (UniProt Q9BXS0) stands inactive: -0.082; under COL6A3 (UniProt P12111), inactive: 0.168.

Compound in the next assay: CCCS(=O)(=O)Nc1ccc(F)c(C(=O)c2c[nH]c3ncc(-c4ccc(Cl)cc4)cc23)c1F [vemurafenib]
Described as above. The method in brief:
as §1
For the target CORO6 isoform 5 (UniProt Q6QEF8), the log2 fold change was inactive: -0.018.
Still for that read-out and setting: under CRMP1 isoform 2 (UniProt Q14194) stands inactive: -0.026; under COX10 (UniProt Q12887), inactive: 0.036; under CPN1 (UniProt P15169), inactive: -0.026.
Same read-out and setting: the result for COL3A1 (UniProt P02461) reads inactive: 0.051; that for CRYAB (UniProt P02511), inactive: 0.023; that for COLEC11 isoform 10 (UniProt Q9BWP8), inactive: 0.019.
Still for that read-out and setting: the result for COMMD6 isoform 2 (UniProt Q7Z4G1) reads inactive: -0.008.
On to CRADD (UniProt P78560), for which the log2 fold change is inactive: 0.113.
On the same count and under the same terms, the result for COMMD3 (UniProt Q9UBI1) reads inactive: 0.14; that for CRABP1 (UniProt P29762), inactive: -0.171; that for CRY2 (UniProt Q49AN0), inactive: 0.013.
Same read-out and setting: under CRY1 (UniProt Q16526) stands inactive: -0.03.
Same read-out and setting: the result for CPA4 (UniProt Q9UI42) reads inactive: 0.408.
With CREB3L2 (UniProt Q70SY1), the log2 fold change is inactive: -0.036.
Same read-out and setting: the result for COL2A1 (UniProt P02458) reads inactive: 0.263; that for CPLX1 (UniProt O14810), inactive: -0.14.
On the same count and under the same terms, under CPNE7 (UniProt Q9UBL6) stands inactive: 0.08.
